# “And” between values parts separate entries of the source, which are not always exact repeats. Equal entries are not always repeated. The shares of active, inactive and inconclusive entries below differ from those in the screen. For part of these data: Potencies beside an inconclusive call are fits to weak or partial responses and may not hold up. The source made the active and inactive calls. Unless noted, cut-off not given; nearly all actives show AC50 up to about 26 µM.
# By UniProt entry, the sequences of proteins in these tests, tags left out.
# UniProt P08183, whole entry, looked up: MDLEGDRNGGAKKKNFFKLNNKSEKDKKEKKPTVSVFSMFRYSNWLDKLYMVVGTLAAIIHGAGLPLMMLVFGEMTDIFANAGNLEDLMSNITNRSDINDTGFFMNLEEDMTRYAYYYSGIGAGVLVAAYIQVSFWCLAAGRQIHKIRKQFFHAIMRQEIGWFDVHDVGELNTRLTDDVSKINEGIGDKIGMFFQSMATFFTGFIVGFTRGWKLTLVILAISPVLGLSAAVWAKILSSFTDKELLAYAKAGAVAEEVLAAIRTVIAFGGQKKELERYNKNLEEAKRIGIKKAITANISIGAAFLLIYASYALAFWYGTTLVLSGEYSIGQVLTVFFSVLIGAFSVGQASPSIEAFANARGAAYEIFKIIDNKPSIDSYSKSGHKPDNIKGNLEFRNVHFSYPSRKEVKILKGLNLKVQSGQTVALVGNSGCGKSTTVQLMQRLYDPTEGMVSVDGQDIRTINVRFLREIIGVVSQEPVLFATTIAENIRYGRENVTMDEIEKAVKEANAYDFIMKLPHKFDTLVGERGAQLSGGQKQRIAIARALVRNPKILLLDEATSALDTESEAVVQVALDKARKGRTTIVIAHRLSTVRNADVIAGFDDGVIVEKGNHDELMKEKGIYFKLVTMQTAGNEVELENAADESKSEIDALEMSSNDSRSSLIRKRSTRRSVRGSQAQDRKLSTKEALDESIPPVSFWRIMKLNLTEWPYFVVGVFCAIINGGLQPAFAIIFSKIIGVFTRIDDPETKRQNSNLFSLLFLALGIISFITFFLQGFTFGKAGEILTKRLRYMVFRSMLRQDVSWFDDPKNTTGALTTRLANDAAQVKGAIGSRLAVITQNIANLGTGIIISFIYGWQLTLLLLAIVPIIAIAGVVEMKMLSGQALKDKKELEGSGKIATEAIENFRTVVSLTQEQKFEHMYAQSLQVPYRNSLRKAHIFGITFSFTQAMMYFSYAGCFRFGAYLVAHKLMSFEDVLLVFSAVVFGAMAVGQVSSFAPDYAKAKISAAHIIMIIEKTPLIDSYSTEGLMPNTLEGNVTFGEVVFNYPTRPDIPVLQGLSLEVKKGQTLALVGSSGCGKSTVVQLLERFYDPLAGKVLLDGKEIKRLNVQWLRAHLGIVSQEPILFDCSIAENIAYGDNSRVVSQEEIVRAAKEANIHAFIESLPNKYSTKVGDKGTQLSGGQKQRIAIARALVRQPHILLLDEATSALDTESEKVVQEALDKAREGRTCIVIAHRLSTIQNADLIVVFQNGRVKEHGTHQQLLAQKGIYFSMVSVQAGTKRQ
# How the values were obtained:
# [1] = growth inhibition of DIPG glioma cells, dose response, cell-based, SU-DIPG-XIII, MIPE5.0, CellTiter-Glo, qHTS (AID 1347064; cut-off not given, nearly all actives have AC50 up to about 23 µM;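 on AC50: cells exposed to compound for 48 hours before the viability read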); conditions: SU-DIPG-XIII viability, CellTiter-Glo ATP luminescence
# [2] = viability loss in pontine glioma line – cell-based, SU-DIPG-XXV, MIPE5.0, CellTiter-Glo, qHTS, dose response (AID 1347065); conditions: CellTiter-Glo ATP luminescence;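 further: cells exposed to compound for 48 hours before ATP readout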
# [3] = SU-DIPG-XXV glioma cell viability, MIPE5.0 library, qHTS (AID 1347068; cut-off not given, nearly all actives have IC50 up to about 30 µM;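 on IC50: cells exposed to compound for 48 hours before viability readout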)
# [4] = JHH-DIPG-1 glioma cell viability, MIPE5.0 library, CellTiter-Glo luminescence, qHTS (AID 1347067); conditions: JHH-DIPG-1 glioma viability, CellTiter-Glo ATP luminescence;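 further: cells exposed to compound for 48 hours before readout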
# [5] = molecular target: ATP-dependent translocase ABCB1 (Homo sapiens) (UniProt P08183); assay: MDR1 (ABCB1) efflux transporter inhibition, cell-based (AID 377; in the data active means fluorescence slope change above about 50%; inconclusive means mostly about 31% to 49%); conditions: MDR1-expressing cells, fluorescent substrate accumulation slope; active compounds read high; concentration not given here
# [6] = inhibitors of polyQ aggregate elongation, biochemical, solid-phase synthetic aggregates, QA3 (AID 1585; call rule not given here); conditions: biotin-polyQ incorporation, at 100 µM, active compounds read high
# [7] = polyglutamine aggregation reduction, turbidity readout, qthio, single concentration 25 µM screen (AID 1588; call rule not given here); conditions: at 25 µM, active compounds read low
# [8] = protection of motor neurons from glutamate death, cell-based, TUNEL DNA degradation staining, MNGlu (AID 1594; call rule not given here); conditions: glutamate-induced death, at 1 µM, active compounds read high
# [9] = enhancers of SMN2 over SMN1 splicing, cell-based, SMN2/SMN1 luciferase reporters (AID 1598; call rule not given here); conditions: SMN2 vs SMN1 luciferase splicing reporter cells; at 10 µM; active compounds read high
# [10] = mitochondrial permeability transition inhibitors (AID 1580; call rule not given here); conditions: isolated mitochondria, permeability transition inhibition; active call at 10 uM (0/1): at 10 µM, active compounds read high
smiles,measurement,setting,value
C=C1CCC[C@]2(C)C=C3OC(=O)C(C)=C3C[C@@H]12,AC50,[1],inconclusive: 3.32 µM [cytotoxic]
same,AC50,[2],inconclusive: 37.2 µM [cytotoxic]
same,outcome,[3],inactive
Cc1onc(-c2ccc(F)cc2)c1COc1ccc(C(=O)N2CCS(=O)(=O)CC2)cn1,AC50,[1],inconclusive: 11.8 µM [cytotoxic]
same,AC50,[2],inconclusive: 33.2 µM [cytotoxic]
same,outcome,[3],inactive
CCc1c(C(=O)NNC(=O)[C@@H](O)c2cc(F)cc(F)c2)ccc(O)c1C,AC50,[1],inconclusive: 0.00118 µM
same,outcome,[2],inactive
same,outcome,[4],inactive
same,IC50,[3],inconclusive: 11.8 µM
CCN(c1cc(C#CCN2CCOCC2)cc(C(=O)NCc2c(C)cc(C)[nH]c2=O)c1C)C1CCC(N(C)CCOC)CC1 (stereo not drawn),outcome,[1],inactive
same,AC50,[2],inconclusive: 0.00118 µM [cytotoxic]
same,outcome,[3],inactive
Cc1cc(-c2nc3cc(F)ccc3s2)ccc1NC(=O)[C@@H](N)CCCCN,AC50,[1],active: 20.9 µM
same,AC50,[2],inconclusive: 37.2 µM [cytotoxic]
same,AC50,[4],inconclusive: 37.2 µM [cytotoxic]
same,IC50,[3],inconclusive: 6.61 µM
COc1cc(NS(C)(=O)=O)ccc1Nc1c2ccccc2nc2ccccc12,AC50,[1],inconclusive: 16.6 µM [cytotoxic]
same,AC50,[2],active: 11.8 µM
same,IC50,[3],inconclusive: 33.2 µM [cytotoxic]
CC[C@H]1OC(=O)[C@H](C)[C@@H](O[C@H]2C[C@@](C)(OC)[C@@H](O)[C@H](C)O2)[C@H](C)[C@@H](O[C@@H]2O[C@H](C)C[C@H](N(C)C)[C@H]2O)[C@](C)(O)C[C@@H](C)C(=O)[C@H](C)[C@@H](O)[C@]1(C)O,fluorescence slope change,[5],active: 76.3%
same,inhibition,[6],inconclusive: 26% and inconclusive: -11.8% and inconclusive: -5.03%
same,aggregation (% of control),[7],inconclusive: 93.5% and inconclusive: 95.3% and inconclusive: 85.3%
same,protection,[8],inconclusive: 45%
same,SMN2/SMN1 luciferase ratio,[9],inconclusive: 1.2 and inconclusive: 1.06 and inconclusive: 0.97
same,AC50,[1],inconclusive: 5.12 µM
same,outcome,[2],inactive
same,outcome,[4],inactive
same,outcome,[3],inactive
Cc1noc(-c2ccc(-c3ccc(C4(C(=O)O)CC4)cc3)cc2)c1NC(=O)O[C@H](C)c1ccccc1,AC50,[1],inconclusive: 14.8 µM [cytotoxic]
same,AC50,[2],active: 23.5 µM
same,AC50,[4],inconclusive: 37.2 µM
same,IC50,[3],inconclusive: 18.6 µM [cytotoxic]
N#Cc1cc2cc(CN3CCC(Nc4ncnc5sc(CC(F)(F)F)cc45)CC3)c(O)cc2n1Cc1cn[nH]c1,AC50,[1],inconclusive: 26.3 µM [cytotoxic]
same,AC50,[2],inconclusive: 23.5 µM [cytotoxic]
same,AC50,[4],inconclusive: 37.2 µM [cytotoxic]
same,IC50,[3],active: 20.9 µM
CCCCN(CCCC)C(=O)CN1C[C@H](c2ccc3c(c2)OCO3)[C@@H](C(=O)O)[C@@H]1c1ccc(OC)cc1,outcome,[1],inactive
same,outcome,[2],inactive
same,IC50,[3],inconclusive: 0.00209 µM
CC(C)COCC(CN(Cc1ccccc1)c1ccccc1)N1CCCC1 (stereo not drawn),active call at 10 uM (0/1),[10],inconclusive: 1
same,inhibition,[6],inconclusive: 11%
same,aggregation (% of control),[7],inconclusive: 105%
same,SMN2/SMN1 luciferase ratio,[9],inconclusive: 1.06
same,AC50,[1],active: 14.8 µM
same,AC50,[2],active: 18.6 µM
same,AC50,[4],active: 18.6 µM
same,IC50,[3],active: 16.6 µM
CCN(c1cc(-c2ccc(CN3CCOCC3)cc2)cc(C(=O)NCc2c(C)cc(C)[nH]c2=O)c1C)C1CCOCC1,AC50,[1],inconclusive: 18.6 µM [cytotoxic]
same,AC50,[2],inconclusive: 33.2 µM [cytotoxic]
same,AC50,[4],inconclusive: 0.00118 µM
same,outcome,[3],inactive
C=CC(=O)Nc1cccc(C)c1Nc1ncc2cc(-c3c(Cl)c(OC)cc(OC)c3Cl)ccc2n1,AC50,[1],inconclusive: 14.8 µM [cytotoxic]
same,AC50,[2],active: 9.34 µM
same,IC50,[3],active: 9.34 µM
COC(=O)C1=C(C)NC(c2ncc(F)cc2F)=N[C@@H]1c1ccc(F)cc1Cl,AC50,[1],inconclusive: 14.8 µM [cytotoxic]
same,outcome,[2],inconclusive
same,AC50,[4],inconclusive: 37.2 µM [cytotoxic]
same,outcome,[3],inactive
COc1cc(OC)c2c(=O)[nH]c(-c3cc(C)c(OCCO)c(C)c3)nc2c1,AC50,[1],inconclusive: 11.8 µM [cytotoxic]
same,AC50,[2],inconclusive: 0.00263 µM [cytotoxic]
same,AC50,[4],inconclusive: 1.18 µM [cytotoxic]
same,outcome,[3],inactive
Cc1cc2c(F)c(Oc3ncnn4cc(OCC(C)OC(=O)C(C)N)c(C)c34)ccc2[nH]1 (stereo not drawn),AC50,[1],active: 16.6 µM
same,AC50,[2],inconclusive: 18.6 µM [cytotoxic]
same,AC50,[4],inconclusive: 11.8 µM [cytotoxic]
same,IC50,[3],inconclusive: 14.8 µM [cytotoxic]
NS(=O)(=O)c1ccc(Cc2c(-c3cccc(-c4ccccc4)c3)nn(-c3nc(C(=O)O)cs3)c2CC2CC2)cc1,AC50,[1],inconclusive: 23.5 µM [cytotoxic]
same,AC50,[2],inconclusive: 29.5 µM [cytotoxic]
same,outcome,[3],inactive
Cc1cc(C(=O)Nc2cc(Nc3ccc4c(/C=C/c5ccccn5)n[nH]c4c3)ccc2F)n(C)n1,AC50,[1],active: 7.42 µM
same,AC50,[2],active: 3.72 µM
same,IC50,[3],inconclusive: 8.33 µM [cytotoxic]
O=C1NC(=O)[C@@H](c2c[nH]c3ccccc23)[C@H]1c1cn2c3c(cccc13)CCC2,AC50,[1],inconclusive: 0.0118 µM [cytotoxic]
same,AC50,[2],active: 0.742 µM
same,IC50,[3],inconclusive: 1.05 µM [cytotoxic]
COC(=O)C1=C(C)NC(c2ncc(F)cc2F)=N[C@H]1c1ccc(F)cc1Cl,AC50,[1],inconclusive: 20.9 µM [cytotoxic]
same,AC50,[2],inconclusive: 26.3 µM [cytotoxic]
same,AC50,[4],inconclusive: 33.2 µM [cytotoxic]
same,IC50,[3],inconclusive: 37.2 µM [cytotoxic]
[O-][n+]1cccc(-c2nc3c(Cl)cccc3cc2[C@@H](Nc2ncnc3cccnc23)C(F)(F)F)c1,AC50,[1],inconclusive: 20.9 µM [cytotoxic]
same,AC50,[2],inconclusive: 14.8 µM [cytotoxic]
same,outcome,[4],inactive
same,IC50,[3],inconclusive: 11.8 µM [cytotoxic]
CC(C)(C)C[C@H]1N[C@@H](C(=O)NC2CCC(O)CC2)[C@H](c2cccc(Cl)c2F)[C@@]12C(=O)Nc1cc(Cl)ccc12 (stereo partly drawn),AC50,[1],inconclusive: 18.6 µM [cytotoxic]
same,AC50,[2],inconclusive: 26.3 µM [cytotoxic]
same,AC50,[4],inconclusive: 29.5 µM [cytotoxic]
same,IC50,[3],inconclusive: 23.5 µM [cytotoxic]
Cc1cc(O)c(-c2ccc([C@@H](C)CN)cc2)c2c1[nH]c(=O)c1sccc12,AC50,[1],active: 0.148 µM
same,AC50,[2],active: 0.148 µM
same,AC50,[4],inconclusive: 0.0186 µM [cytotoxic]
same,IC50,[3],inconclusive: 11.8 µM [cytotoxic]
Cn1ncnc1[C@H]1c2n[nH]c(=O)c3cc(F)cc(c23)N[C@@H]1c1ccc(F)cc1,AC50,[1],inconclusive: 0.468 µM [cytotoxic]
same,AC50,[2],inconclusive: 0.00166 µM [cytotoxic]
same,outcome,[4],inactive
same,outcome,[3],inactive
Cc1cc(F)c(C(=O)Nc2cccc(-c3nncn3C(C)C)n2)cc1-n1cnc(C2CC2)c1,AC50,[1],active: 18.6 µM
same,AC50,[2],active: 18.6 µM
same,AC50,[4],inconclusive: 29.5 µM [cytotoxic]
same,IC50,[3],active: 18.6 µM
NS(=O)(=O)c1ccc(S(=O)(=O)Nc2cccc3c(Cl)c[nH]c23)cc1,AC50,[1],active: 0.934 µM
same,AC50,[2],inconclusive: 0.468 µM [cytotoxic]
same,AC50,[4],active: 1.18 µM
same,IC50,[3],inconclusive: 1.32 µM [cytotoxic]
COc1cc([C@@H](CC(=O)O)c2ccc(C)c(CN3C[C@@H](C)Oc4ccccc4S3(=O)=O)c2)cc2nnn(C)c12,outcome,[1],inactive
same,outcome,[2],inactive
same,AC50,[4],inconclusive: 3.32 µM [cytotoxic]
same,outcome,[3],inactive
CCCCC(=O)OCC(=O)[C@]1(O)Cc2c(O)c3c(c(O)c2[C@@H](O[C@H]2C[C@H](NC(=O)C(F)(F)F)[C@H](O)[C@H](C)O2)C1)C(=O)c1c(OC)cccc1C3=O,AC50,[1],inconclusive: 5.9 µM [cytotoxic]
same,AC50,[2],inconclusive: 5.9 µM [cytotoxic]
same,AC50,[4],inconclusive: 4.17 µM [cytotoxic]
same,IC50,[3],inconclusive: 16.6 µM [cytotoxic]
N[C@@H]1CN(c2c(F)cc3c(=O)c(C(=O)O)cn([C@@H]4C[C@@H]4F)c3c2Cl)CC12CC2,outcome,[1],inactive
same,AC50,[2],inconclusive: 37.2 µM
same,outcome,[3],inactive
CCS(=O)(=O)N1CCC(C(C)n2c(C)c(C(=O)NCc3c(OC)cc(C)[nH]c3=O)c3ccccc32)CC1 (stereo not drawn),AC50,[1],inconclusive: 0.0209 µM [cytotoxic]
same,AC50,[2],inconclusive: 0.00118 µM [cytotoxic]
same,outcome,[3],inactive
Cn1ncc(NC(=O)c2nc(-c3c(F)cccc3F)sc2N)c1N1CC[C@@H](N)[C@H](F)CC1,AC50,[1],inconclusive: 18.6 µM [cytotoxic]
same,AC50,[2],inconclusive: 23.5 µM [cytotoxic]
same,IC50,[3],inconclusive: 26.3 µM [cytotoxic]
Cc1cc(C)c(S(=O)(=O)N(CCc2cccc(Br)c2)Cc2ccc(-c3cccc(S(C)(=O)=O)c3)cc2)c(C)c1,AC50,[1],inconclusive: 0.525 µM [cytotoxic]
same,outcome,[2],inactive
same,outcome,[3],inactive
CCCN(CCC)C(=O)C(CCC(=O)O)NC(=O)c1ccccc1 (stereo not drawn),fluorescence slope change,[5],inconclusive: 45%
same,inhibition,[6],inconclusive: -20.7%
same,aggregation (% of control),[7],inconclusive: 120%
same,SMN2/SMN1 luciferase ratio,[9],inconclusive: 1.06
same,outcome,[1],inactive
same,outcome,[2],inactive
same,outcome,[4],inactive
same,outcome,[3],inactive
COc1cc2c(cc1OC(C)C)[C@H](c1ccc(Cl)cc1)N(c1ccc(N(C)CC3CCC(N4CCN(C)C(=O)C4)CC3)cc1)C(=O)C2 (stereo partly drawn),AC50,[1],active: 20.9 µM
same,AC50,[2],active: 26.3 µM
same,AC50,[4],inconclusive: 37.2 µM [cytotoxic]
same,IC50,[3],active: 29.5 µM
COc1ccc(-n2c(SCCCN3C(=O)c4cccc5cccc(c45)C3=O)nnc2-c2ccncc2)cc1,AC50,[1],inconclusive: 29.5 µM [cytotoxic]
same,AC50,[4],inconclusive: 26.3 µM [cytotoxic]

# Reformatted: results already given
smiles | measurement | setting | value
CCc1c(C(=O)NNC(=O)[C@@H](O)c2cc(F)cc(F)c2)ccc(O)c1C | outcome | [4] | inactive
CCN(c1cc(C#CCN2CCOCC2)cc(C(=O)NCc2c(C)cc(C)[nH]c2=O)c1C)C1CCC(N(C)CCOC)CC1 (stereo not drawn) | AC50 | [2] | inconclusive: 0.00118 µM [cytotoxic]
CCN(c1cc(-c2ccc(CN3CCOCC3)cc2)cc(C(=O)NCc2c(C)cc(C)[nH]c2=O)c1C)C1CCOCC1 | AC50 | [1] | inconclusive: 18.6 µM [cytotoxic]
COC(=O)C1=C(C)NC(c2ncc(F)cc2F)=N[C@@H]1c1ccc(F)cc1Cl | outcome | [2] | inconclusive
Cc1cc(C(=O)Nc2cc(Nc3ccc4c(/C=C/c5ccccn5)n[nH]c4c3)ccc2F)n(C)n1 | IC50 | [3] | inconclusive: 8.33 µM [cytotoxic]
